For assay [1], the target named is T1, native rhodopsin 1 (Rh1) (Drosophila melanogaster (endogenous in fly heads)) (UniProt P06002).
T1 sequence: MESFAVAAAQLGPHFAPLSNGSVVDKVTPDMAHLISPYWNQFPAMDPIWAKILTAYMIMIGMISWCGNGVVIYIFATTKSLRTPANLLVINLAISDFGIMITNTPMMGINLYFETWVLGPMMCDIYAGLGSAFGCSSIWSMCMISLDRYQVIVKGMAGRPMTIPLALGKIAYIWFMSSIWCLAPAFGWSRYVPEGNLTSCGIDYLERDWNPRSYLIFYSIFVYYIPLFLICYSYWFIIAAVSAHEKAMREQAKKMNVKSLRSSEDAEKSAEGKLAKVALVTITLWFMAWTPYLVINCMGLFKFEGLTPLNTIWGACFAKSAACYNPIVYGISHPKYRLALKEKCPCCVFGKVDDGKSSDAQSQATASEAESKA
Kind of assay: co-sedimentation; fly heads homogenised in 50 mM Tris-HCl pH 7.5, 150 mM NaCl, 100,000 x g; soluble and membrane (1% Triton X-100) fractions blotted with anti-arrestin 2 and streptavidin-HRP; flies in blue light 4 h (arrestin 2 mainly in membranes) or then red light 5 min (mainly soluble); wild type, Rh1::TbID^wt and Rh1::TbID^ninaE.

The target in assay [2] is T2, Rh1-TurboID fusion protein (Rh1::TbID) (Drosophila melanogaster) (UniProt P06002).
T2 sequence: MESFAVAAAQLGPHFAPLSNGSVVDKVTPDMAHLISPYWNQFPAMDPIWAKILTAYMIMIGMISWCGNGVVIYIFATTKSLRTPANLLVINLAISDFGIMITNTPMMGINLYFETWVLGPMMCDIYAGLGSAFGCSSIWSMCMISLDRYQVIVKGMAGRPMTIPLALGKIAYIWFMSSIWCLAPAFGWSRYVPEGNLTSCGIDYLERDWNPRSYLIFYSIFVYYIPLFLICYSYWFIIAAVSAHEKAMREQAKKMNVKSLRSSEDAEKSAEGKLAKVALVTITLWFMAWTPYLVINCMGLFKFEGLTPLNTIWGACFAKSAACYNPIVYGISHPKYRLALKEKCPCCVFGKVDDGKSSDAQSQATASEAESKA
Described as above.

No constants are given. Whether binding was seen depends on the method and setting. Binding seen in cells or lysates may run through a third protein. Some entries that bind do so weakly or less than the wild type. For some assays here: Where a sequence is shown, tags or fusion partners need not be part of it.

B1: arrestin 2 (protein, UniProt P19107 1-401)
chain: MVVSVKVFKKATPNGKVTFYLGRRDFIDHIDYCDPVDGVIVVEPDYLKNRKVFGQLATTYRYGREEDEVMGVKFSKELILCREQIVPMTNPNMEMTPMQEKLVRKLGSNAYPFTFHFPPNSPSSVTLQQEGDDNGKPLGVEYTIRAFVGDSEDDRQHKRSMVSLVIKKLQYAPLNRGQRLPSSLVSKGFTFSNGKISLEVTLDREIYYHGEKTAATVQVSNNSKKSVKSIKCFIVQHTEITMVNAQFSKHVAQLETKEGCPITPGANLTKTFYLIPLAANNKDRHGIALDGHLKDEDVNLASSTMVQEGKSTGDACGIVISYSVRIKLNCGTLGGEMQTDVPFKLLQPAPGTIEKKRSNAMKKMKSIEQHRNVKGYYQDDDDNIVFEDFAKMRMNNVNMAD
Consider B1, for which the binding entry in assay [1] and in assay [2] was “binds” throughout.

These data come from PMC10805788.
